Results on 25 targets are retold here after the supplement of paper PMC10849652.

The chains behind the UniProt entries cited, without tags or fusion partners. Where a name states a change or a piece, a line headed by the entry shows the natural chain unless it says otherwise.
UniProt Q6N063: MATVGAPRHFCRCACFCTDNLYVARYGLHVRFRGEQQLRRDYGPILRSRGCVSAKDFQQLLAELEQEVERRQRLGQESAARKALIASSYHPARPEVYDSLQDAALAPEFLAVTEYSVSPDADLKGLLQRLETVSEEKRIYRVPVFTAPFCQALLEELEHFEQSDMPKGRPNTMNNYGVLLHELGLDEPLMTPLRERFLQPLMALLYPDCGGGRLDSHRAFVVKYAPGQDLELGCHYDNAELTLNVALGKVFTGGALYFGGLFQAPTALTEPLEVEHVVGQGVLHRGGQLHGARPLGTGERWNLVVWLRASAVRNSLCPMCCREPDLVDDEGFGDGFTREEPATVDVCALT
UniProt Q9UBU9: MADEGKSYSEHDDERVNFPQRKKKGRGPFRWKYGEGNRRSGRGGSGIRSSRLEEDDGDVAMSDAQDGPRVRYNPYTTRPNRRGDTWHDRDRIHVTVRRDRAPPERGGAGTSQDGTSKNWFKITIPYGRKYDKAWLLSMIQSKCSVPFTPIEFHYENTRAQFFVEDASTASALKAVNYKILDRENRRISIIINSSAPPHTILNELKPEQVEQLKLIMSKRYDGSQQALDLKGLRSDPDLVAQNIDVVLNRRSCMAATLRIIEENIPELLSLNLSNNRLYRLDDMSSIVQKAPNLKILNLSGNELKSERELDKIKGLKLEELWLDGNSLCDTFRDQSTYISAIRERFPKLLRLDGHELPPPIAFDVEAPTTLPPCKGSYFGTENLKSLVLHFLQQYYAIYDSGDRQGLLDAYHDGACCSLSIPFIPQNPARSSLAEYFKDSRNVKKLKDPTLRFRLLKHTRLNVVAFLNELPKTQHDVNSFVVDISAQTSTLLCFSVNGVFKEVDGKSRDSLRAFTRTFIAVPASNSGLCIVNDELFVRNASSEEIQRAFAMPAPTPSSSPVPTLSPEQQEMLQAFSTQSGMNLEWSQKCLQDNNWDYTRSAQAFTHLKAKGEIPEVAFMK
UniProt O60890: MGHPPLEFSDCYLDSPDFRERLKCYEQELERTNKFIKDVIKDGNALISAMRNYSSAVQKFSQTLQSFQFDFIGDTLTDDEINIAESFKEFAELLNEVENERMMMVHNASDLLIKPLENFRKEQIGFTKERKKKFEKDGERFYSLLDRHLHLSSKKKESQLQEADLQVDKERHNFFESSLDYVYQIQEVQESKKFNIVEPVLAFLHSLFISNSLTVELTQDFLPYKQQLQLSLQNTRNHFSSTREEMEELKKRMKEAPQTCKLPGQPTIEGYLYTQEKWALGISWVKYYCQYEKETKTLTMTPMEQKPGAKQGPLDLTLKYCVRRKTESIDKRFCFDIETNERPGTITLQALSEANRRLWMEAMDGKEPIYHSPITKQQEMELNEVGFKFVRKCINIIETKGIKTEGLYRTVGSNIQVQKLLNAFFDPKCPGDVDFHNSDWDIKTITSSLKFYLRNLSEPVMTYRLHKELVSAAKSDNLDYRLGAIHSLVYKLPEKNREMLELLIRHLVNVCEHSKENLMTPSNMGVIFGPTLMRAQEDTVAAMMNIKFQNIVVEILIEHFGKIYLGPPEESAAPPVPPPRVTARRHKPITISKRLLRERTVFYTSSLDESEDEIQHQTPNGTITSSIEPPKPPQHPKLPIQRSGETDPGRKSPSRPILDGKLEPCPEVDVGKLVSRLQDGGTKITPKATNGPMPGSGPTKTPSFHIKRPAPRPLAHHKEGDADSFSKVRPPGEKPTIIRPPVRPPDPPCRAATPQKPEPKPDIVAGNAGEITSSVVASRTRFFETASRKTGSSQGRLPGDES
UniProt Q9H4B0: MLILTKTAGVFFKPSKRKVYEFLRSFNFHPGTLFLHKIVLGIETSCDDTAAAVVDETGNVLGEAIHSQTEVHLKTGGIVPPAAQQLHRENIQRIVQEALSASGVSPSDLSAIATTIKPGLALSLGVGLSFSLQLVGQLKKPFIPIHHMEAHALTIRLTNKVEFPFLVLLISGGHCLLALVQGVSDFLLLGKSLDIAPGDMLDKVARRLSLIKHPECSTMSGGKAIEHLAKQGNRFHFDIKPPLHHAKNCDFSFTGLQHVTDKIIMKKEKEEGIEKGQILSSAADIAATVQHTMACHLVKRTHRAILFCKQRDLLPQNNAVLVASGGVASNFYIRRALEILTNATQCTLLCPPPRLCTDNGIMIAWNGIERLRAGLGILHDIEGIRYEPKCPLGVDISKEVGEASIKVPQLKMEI
UniProt Q9BZD4: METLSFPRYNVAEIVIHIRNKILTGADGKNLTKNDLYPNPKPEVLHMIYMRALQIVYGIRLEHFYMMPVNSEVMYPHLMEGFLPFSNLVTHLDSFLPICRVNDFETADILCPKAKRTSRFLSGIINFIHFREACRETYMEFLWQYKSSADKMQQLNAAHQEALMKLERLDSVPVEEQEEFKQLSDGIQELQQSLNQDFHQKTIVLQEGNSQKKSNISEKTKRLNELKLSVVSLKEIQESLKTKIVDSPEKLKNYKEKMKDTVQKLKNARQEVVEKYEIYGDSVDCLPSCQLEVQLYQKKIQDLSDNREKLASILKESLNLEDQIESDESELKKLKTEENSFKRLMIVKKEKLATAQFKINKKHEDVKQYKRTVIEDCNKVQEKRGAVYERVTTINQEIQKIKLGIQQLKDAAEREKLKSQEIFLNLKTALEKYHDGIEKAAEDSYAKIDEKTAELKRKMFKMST
UniProt Q9Y6R0: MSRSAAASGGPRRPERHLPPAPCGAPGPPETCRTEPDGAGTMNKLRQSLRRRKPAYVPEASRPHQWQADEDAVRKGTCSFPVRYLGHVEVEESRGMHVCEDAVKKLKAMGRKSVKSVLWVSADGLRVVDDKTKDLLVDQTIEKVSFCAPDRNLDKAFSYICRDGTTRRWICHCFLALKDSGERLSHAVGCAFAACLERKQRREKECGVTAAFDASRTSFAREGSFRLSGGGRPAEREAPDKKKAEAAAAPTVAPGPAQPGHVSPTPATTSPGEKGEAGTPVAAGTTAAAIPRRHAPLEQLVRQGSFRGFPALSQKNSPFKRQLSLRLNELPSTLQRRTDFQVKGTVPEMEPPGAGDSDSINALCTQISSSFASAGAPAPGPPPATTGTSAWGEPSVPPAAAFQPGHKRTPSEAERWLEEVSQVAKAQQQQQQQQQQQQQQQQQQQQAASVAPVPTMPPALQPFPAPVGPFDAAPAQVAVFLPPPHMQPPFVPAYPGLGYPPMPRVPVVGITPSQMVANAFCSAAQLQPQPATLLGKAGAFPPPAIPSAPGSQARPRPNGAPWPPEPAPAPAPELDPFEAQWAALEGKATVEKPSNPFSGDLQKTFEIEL
UniProt Q969T7: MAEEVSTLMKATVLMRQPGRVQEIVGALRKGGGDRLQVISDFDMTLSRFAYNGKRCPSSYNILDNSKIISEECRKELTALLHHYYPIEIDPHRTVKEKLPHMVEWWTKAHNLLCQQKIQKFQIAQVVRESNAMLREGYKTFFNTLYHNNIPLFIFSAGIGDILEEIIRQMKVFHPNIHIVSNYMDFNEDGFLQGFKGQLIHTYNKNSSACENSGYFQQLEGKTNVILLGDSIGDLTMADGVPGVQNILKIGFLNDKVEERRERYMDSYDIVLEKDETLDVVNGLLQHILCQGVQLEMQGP
UniProt P47900: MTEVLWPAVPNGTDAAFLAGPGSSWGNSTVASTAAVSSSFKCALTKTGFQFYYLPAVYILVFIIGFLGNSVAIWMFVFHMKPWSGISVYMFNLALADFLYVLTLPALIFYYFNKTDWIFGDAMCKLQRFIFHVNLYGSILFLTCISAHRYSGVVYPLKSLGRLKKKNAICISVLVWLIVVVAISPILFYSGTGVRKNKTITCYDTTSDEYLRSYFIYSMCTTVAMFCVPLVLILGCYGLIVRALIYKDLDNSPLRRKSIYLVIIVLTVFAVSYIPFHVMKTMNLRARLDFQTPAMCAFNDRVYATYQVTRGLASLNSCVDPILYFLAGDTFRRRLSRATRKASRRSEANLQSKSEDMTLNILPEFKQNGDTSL
UniProt O15381: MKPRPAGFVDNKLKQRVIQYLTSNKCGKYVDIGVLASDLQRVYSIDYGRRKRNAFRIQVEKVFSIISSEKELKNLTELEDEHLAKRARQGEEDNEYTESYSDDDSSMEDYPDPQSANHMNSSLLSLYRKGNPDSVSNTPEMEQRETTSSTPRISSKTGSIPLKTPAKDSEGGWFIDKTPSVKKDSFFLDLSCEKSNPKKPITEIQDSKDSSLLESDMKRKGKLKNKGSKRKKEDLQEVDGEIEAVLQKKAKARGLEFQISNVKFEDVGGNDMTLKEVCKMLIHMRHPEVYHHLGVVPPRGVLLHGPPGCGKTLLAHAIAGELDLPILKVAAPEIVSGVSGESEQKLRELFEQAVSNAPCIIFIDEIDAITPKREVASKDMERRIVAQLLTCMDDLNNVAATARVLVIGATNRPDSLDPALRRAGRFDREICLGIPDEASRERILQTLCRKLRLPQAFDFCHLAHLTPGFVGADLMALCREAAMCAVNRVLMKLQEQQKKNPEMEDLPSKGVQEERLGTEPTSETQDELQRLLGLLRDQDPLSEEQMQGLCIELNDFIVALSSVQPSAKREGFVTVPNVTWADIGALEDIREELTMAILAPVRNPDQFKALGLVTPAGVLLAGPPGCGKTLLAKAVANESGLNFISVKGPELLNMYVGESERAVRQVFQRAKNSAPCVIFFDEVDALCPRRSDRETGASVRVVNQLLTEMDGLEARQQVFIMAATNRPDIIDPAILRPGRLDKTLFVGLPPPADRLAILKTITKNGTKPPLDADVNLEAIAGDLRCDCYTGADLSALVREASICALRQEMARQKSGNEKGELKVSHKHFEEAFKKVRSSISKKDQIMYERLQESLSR
UniProt Q96CV9, whole entry, looked up: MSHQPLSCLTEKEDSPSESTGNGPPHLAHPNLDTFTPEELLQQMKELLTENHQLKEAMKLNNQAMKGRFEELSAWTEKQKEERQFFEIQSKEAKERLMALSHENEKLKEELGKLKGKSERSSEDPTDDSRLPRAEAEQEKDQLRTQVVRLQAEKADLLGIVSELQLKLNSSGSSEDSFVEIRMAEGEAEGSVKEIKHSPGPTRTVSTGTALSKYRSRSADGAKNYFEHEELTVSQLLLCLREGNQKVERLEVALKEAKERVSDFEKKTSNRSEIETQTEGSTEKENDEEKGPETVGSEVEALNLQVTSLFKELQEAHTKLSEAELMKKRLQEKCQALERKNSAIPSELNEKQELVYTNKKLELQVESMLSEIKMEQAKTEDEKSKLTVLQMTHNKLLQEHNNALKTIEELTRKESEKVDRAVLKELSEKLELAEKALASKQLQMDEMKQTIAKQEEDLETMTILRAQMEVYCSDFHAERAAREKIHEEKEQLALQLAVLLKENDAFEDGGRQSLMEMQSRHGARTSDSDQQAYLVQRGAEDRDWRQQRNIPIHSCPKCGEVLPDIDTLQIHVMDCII
UniProt Q99571: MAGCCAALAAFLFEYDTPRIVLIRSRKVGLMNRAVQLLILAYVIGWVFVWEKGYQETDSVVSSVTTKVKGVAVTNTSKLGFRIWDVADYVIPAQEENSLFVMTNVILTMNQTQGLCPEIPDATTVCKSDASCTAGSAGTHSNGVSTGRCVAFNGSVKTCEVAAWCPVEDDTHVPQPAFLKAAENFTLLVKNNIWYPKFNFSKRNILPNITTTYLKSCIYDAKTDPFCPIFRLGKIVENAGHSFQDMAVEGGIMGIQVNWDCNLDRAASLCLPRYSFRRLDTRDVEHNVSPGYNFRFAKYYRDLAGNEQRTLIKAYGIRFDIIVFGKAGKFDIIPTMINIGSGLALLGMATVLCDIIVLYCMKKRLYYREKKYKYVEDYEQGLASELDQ
UniProt Q9BRQ3: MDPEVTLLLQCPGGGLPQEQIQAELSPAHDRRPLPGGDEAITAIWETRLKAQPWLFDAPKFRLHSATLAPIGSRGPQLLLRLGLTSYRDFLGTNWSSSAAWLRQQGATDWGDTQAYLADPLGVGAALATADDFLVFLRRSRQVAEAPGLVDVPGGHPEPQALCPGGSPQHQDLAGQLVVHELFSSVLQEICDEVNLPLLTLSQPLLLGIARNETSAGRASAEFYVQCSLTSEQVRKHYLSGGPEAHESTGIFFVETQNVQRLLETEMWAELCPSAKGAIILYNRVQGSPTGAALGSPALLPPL
UniProt P50583: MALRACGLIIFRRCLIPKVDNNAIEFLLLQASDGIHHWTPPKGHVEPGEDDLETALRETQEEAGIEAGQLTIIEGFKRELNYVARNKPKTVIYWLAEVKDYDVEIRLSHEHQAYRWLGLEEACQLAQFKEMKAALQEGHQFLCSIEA
UniProt P0C025: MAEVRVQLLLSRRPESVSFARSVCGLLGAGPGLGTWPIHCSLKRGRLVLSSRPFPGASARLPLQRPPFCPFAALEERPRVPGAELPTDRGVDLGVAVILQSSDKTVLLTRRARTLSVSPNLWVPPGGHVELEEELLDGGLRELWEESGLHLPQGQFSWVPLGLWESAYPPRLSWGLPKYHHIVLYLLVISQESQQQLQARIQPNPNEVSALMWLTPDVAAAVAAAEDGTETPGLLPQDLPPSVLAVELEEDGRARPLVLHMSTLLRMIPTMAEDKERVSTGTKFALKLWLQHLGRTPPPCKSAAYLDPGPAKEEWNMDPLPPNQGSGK

The list shows a part of the results.

Compound in one test: CCn1cc(-c2ccnc3[nH]c(-c4cccc(CN(C)C)c4)cc23)c(-c2ccc(NC(=O)N(C)C)cc2)n1
Nature of the test: log2 fold change, soluble protein after heating vs DMSO (PISA); higher = thermal stabilisation; K562 cells, 10 uM, 30 min; active = over 0.2 and 3.5 SD of the protein, either way, in both replicates (recomputed). In short, it runs like this:
(§1)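 K562 cells (2×10^6 cells/mL) were treated with 10 μM compound for 30 min, and aliquots were heated for 3 min over 48°C-58°C. Pooled aliquots were extracted in PBS with 0.5% NP-40 at 4°C, and the supernatant after 21,000xg for 90 min was measured by TMTpro 16plex LC-MS/MS with channel sums equalised. Reported thermal stability, relative to control samples and from duplicates, is a log2 fold change.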
Consider NUDT7 (UniProt P0C024), for which the log2 fold change is inactive: -0.055.

Take OGFOD2 (UniProt Q6N063): the log2 fold change was active: -0.372.

Consider NXF1 (UniProt Q9UBU9), for which the log2 fold change is inactive: 0.105.

Take OPHN1 (UniProt O60890): the log2 fold change was inactive: -0.143.

As to OSGEPL1 (UniProt Q9H4B0), the log2 fold change is inactive: -0.114.

As to OCIAD1 (UniProt D6RDK6), the log2 fold change was inactive: 0.195.

For the target NUF2 (UniProt Q9BZD4), the log2 fold change was inactive: 0.024.

In the case of OVCA2 (UniProt Q8WZ82), the log2 fold change is inactive: 0.086.

Take NUDT5 (UniProt C9JYY9): the log2 fold change was inactive: -0.091.

As for NUMBL (UniProt Q9Y6R0), the log2 fold change was inactive: 0.007.

NT5C3B (UniProt Q969T7): the log2 fold change is inactive: -0.117.

For P2RY1 (UniProt P47900), the log2 fold change was inactive: 0.055.

As for NVL (UniProt O15381), the log2 fold change was inactive: -0.062.

OPTN (UniProt Q96CV9): the log2 fold change was inactive: 0.086.

As for ODF2 (UniProt Q5BJF6), the log2 fold change was inactive: 0.005.

Compound in another test: CN(C)CC(=O)Nc1ccc2[nH]c(=O)c3ccccc3c2c1
The description is as above. The method, boiled down:
as §1
As to ODF2L isoform 4 (UniProt Q9ULJ1), the log2 fold change is inactive: 0.053.

Turning to OGFOD2 (UniProt Q6N063), the log2 fold change is inactive: 0.035.

Turning to OSGEPL1 (UniProt Q9H4B0), the log2 fold change was inactive: 0.124.

In the case of OCIAD1 (UniProt D6RDK6), the log2 fold change was inactive: -0.056.

As for NUF2 (UniProt Q9BZD4), the log2 fold change is inactive: -0.106.

In the case of P2RX4 isoform 2 (UniProt Q99571), the log2 fold change was inactive: 0.164.

Turning to NUDT22 (UniProt Q9BRQ3), the log2 fold change is inactive: 0.08.

As for NUDT5 (UniProt C9JYY9), the log2 fold change is inactive: -0.096.

Consider NUMBL (UniProt Q9Y6R0), for which the log2 fold change was inactive: -0.023.

In the case of NT5C3B (UniProt Q969T7), the log2 fold change is inactive: -0.101.

Regarding NUDT2 (UniProt P50583), the log2 fold change is inactive: 0.134.

With NUDT17 (UniProt P0C025), the log2 fold change was inactive: 0.225.

OPA3 isoform 2 (UniProt Q9H6K4): the log2 fold change was inactive: 0.131.

For OPTN (UniProt Q96CV9), the log2 fold change was inactive: -0.019.

Compound in another test: CN(CCOC1=CC=C(C=C1)C[C@H]2C(=O)NC(=O)S2)C3=CC=CC=N3 (racemic) [rosiglitazone]
The test is described as above. In short, it runs like this:
as §1
As for ODF2L isoform 4 (UniProt Q9ULJ1), the log2 fold change is inactive: -0.051.

As for OBSCN (UniProt A6NGQ3), the log2 fold change was inactive: 0.162.

As to OCIAD1 (UniProt D6RDK6), the log2 fold change is inactive: 0.057.

As to NUF2 (UniProt Q9BZD4), the log2 fold change is inactive: -0.022.

Regarding P2RX4 isoform 2 (UniProt Q99571), the log2 fold change was inactive: 0.082.

Regarding NUDT22 (UniProt Q9BRQ3), the log2 fold change is inactive: 0.184.

In the case of NUDT5 (UniProt C9JYY9), the log2 fold change was inactive: -0.022.

As for NT5C3B (UniProt Q969T7), the log2 fold change is inactive: -0.127.

Turning to NUDT2 (UniProt P50583), the log2 fold change was inactive: -0.009.

Take OAS3 (UniProt Q9Y6K5): the log2 fold change was inactive: -0.051.

Take NUDT17 (UniProt P0C025): the log2 fold change was inactive: -0.164.

Consider NVL (UniProt O15381), for which the log2 fold change was inactive: 0.099.

Consider OPTN (UniProt Q96CV9), for which the log2 fold change was inactive: -0.099.

As to OGFOD3 (UniProt Q6PK18), the log2 fold change was inactive: 0.069.

Compound in a further test: CN1C2=C(C3=C1C(=O)N(N=C3)CC4=CC(=CC=C4)N)SC(=C2)S(=O)C
The description is as above. The method, boiled down:
as §1
In the case of OGFOD2 (UniProt Q6N063), the log2 fold change is inactive: 0.147.

Turning to ODC1 (UniProt P11926), the log2 fold change was inactive: 0.071.

Turning to OPHN1 (UniProt O60890), the log2 fold change is inactive: 0.108.

For OSGEPL1 (UniProt Q9H4B0), the log2 fold change was inactive: -0.132.

For the target OCIAD1 (UniProt D6RDK6), the log2 fold change was inactive: 0.006.

On to NUF2 (UniProt Q9BZD4), for which the log2 fold change is inactive: 0.524.

Consider P2RX4 isoform 2 (UniProt Q99571), for which the log2 fold change was inactive: 0.179.

Turning to NUDT22 (UniProt Q9BRQ3), the log2 fold change is inactive: -0.05.

Turning to NUDT5 (UniProt C9JYY9), the log2 fold change is inactive: 0.02.

Take NUMBL (UniProt Q9Y6R0): the log2 fold change was inactive: 0.041.

For the target NT5C3B (UniProt Q969T7), the log2 fold change is inactive: 0.064.

Turning to P2RY1 (UniProt P47900), the log2 fold change was inactive: -0.087.

Consider NUDT2 (UniProt P50583), for which the log2 fold change is inactive: -0.065.

As to OAS3 (UniProt Q9Y6K5), the log2 fold change is inactive: 0.03.

On to OPA3 isoform 2 (UniProt Q9H6K4), for which the log2 fold change was inactive: -0.225.

For the target OPTN (UniProt Q96CV9), the log2 fold change was inactive: 0.141.

Compound in another test: CN1CCC(CNc2ccc3ncc(-c4cccc(OC(F)(F)F)c4)n3n2)CC1
The description is as above. In short, it runs like this:
as §1
Consider NUDT7 (UniProt P0C024), for which the log2 fold change is inactive: 0.322.

Turning to OGFOD2 (UniProt Q6N063), the log2 fold change was inactive: -0.112.

For the target NXF1 (UniProt Q9UBU9), the log2 fold change was inactive: 0.06.

Consider OPHN1 (UniProt O60890), for which the log2 fold change was inactive: -0.095.

For the target OSGEPL1 (UniProt Q9H4B0), the log2 fold change is inactive: -0.021.

Consider OCIAD1 (UniProt D6RDK6), for which the log2 fold change was inactive: -0.049.

On to NUF2 (UniProt Q9BZD4), for which the log2 fold change is inactive: 0.106.

Take OVCA2 (UniProt Q8WZ82): the log2 fold change was inactive: -0.116.

With NUDT5 (UniProt C9JYY9), the log2 fold change is inactive: -0.022.

For NUMBL (UniProt Q9Y6R0), the log2 fold change is inactive: -0.259.

As for NT5C3B (UniProt Q969T7), the log2 fold change was inactive: 0.156.

On to P2RY1 (UniProt P47900), for which the log2 fold change is inactive: 0.218.

For the target NVL (UniProt O15381), the log2 fold change was inactive: 0.088.

Consider OPTN (UniProt Q96CV9), for which the log2 fold change is inactive: -0.092.

ODF2 (UniProt Q5BJF6): the log2 fold change is inactive: 0.089.
